Data from paper PMC3983036.
Positions count from the first letter of the chain named. Numbers in names are those of the source. These are yes or no findings as the source states them, for the method shown. In cells and extracts the contact can be indirect. For part of these data: Binding can be weak; no strength is given. Tags and fused reporters may be left off the sequences shown. Each block holds one binder with its values, some of them ahead of it.

By UniProt entry, the sequences of proteins in these tests, tags left out. Where a name states a change or a piece, a line headed by the entry shows the natural chain unless it says otherwise.
UniProt Q9VEA6: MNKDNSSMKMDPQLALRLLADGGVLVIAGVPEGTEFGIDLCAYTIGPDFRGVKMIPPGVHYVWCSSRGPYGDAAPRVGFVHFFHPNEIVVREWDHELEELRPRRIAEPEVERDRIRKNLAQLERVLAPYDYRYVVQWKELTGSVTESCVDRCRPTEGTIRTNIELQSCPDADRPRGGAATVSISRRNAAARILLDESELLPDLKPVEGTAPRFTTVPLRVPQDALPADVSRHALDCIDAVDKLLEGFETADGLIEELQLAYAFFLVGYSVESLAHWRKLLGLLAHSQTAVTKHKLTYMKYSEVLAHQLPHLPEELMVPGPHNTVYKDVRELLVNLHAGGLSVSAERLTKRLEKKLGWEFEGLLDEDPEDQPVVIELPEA

Assays:
[1] = molecular target: Flag-tagged Aar2 (Drosophila) (Drosophila melanogaster) (UniProt Q9VEA6); test: co-IP; pairs of epitope-tagged proteins expressed in S2 cells; lysis in 50 mM Tris-HCl pH 7.8, 150 mM NaCl, 1 mM EDTA, 1% Triton X-100, 0.01% Igepal; anti-Flag magnetic beads overnight at 4°C, five washes, immunoblot by the tags; cells with Ecd^1 upshifted to 30°C for 45 min before lysis; control: empty pTFW vector
[2] = molecular target: Flag-tagged Snu114 (Drosophila) (Drosophila melanogaster); test: as above

- binding [1]: binds
- binding [2]: no binding
B1: Ecd^l(3)23 mutant protein (truncated Ecd), epitope-tagged (domain or fragment, UniProt Q9W032 1-650)
chain: MSKIPGSNLEFVREEDFVEYYIFPKIPDNVQDEGALRKLMLQIRNEISAIVREKSLERSYLWHKDEFQLQVRLGGAEERLLNEETNPEEEAELGDLPPHFHGVTHYGDNISDEWFVVYLLTEITRARGDCIARVSDSDGEFLLIEAADALPDWASPETCEQRVYLVGGHLQLLQNSAASSQDKPLTMAMAVQRIRMNPTLYRCSQEIQSCIDARLKEYQIAQPHFSIHRQVLELPHSAAQLLKQKPRLLSSAVRAFCERDSLDIKALRTMRYFPPEATRVRTNVRFTRCLYAMLSHQQYLPEKRLGWHLTDPVSEPERYKEQLLGLKLASGLEILATQAKRVEGQQLEDLPAWRSYLRSLLSKGYFRDNIEGSAEYQELLNKAKVYFRGNQERFRTASRAGAEILDLLLHPAEAASEELRDEENNLQPSDSDEWLNISAEDLDSMLQDRYGPKKLYKPNGQMNAEEFTKQLAEFLDRQSNYEGIEHRGLEEPELDSDDDEPPPQANGSTGLTAKVKKNPSMRKACQRNSVIQPEEPDSTHVRNFLDFVIPEDNWDSTSEMSDYADEDDMESNLNALSGGGSVFPLDRQIQSYMEQMDRELAQTSVGKSFHGKKKTAPQADEDDFDDIEDFEPININVNTLRNMMDSYQSQ

- binding [1]: binds
- binding [2]: no binding
B2: Ecd^1 mutant protein (P656S), epitope-tagged (protein, UniProt Q9W032 1-684)
chain: MSKIPGSNLEFVREEDFVEYYIFPKIPDNVQDEGALRKLMLQIRNEISAIVREKSLERSYLWHKDEFQLQVRLGGAEERLLNEETNPEEEAELGDLPPHFHGVTHYGDNISDEWFVVYLLTEITRARGDCIARVSDSDGEFLLIEAADALPDWASPETCEQRVYLVGGHLQLLQNSAASSQDKPLTMAMAVQRIRMNPTLYRCSQEIQSCIDARLKEYQIAQPHFSIHRQVLELPHSAAQLLKQKPRLLSSAVRAFCERDSLDIKALRTMRYFPPEATRVRTNVRFTRCLYAMLSHQQYLPEKRLGWHLTDPVSEPERYKEQLLGLKLASGLEILATQAKRVEGQQLEDLPAWRSYLRSLLSKGYFRDNIEGSAEYQELLNKAKVYFRGNQERFRTASRAGAEILDLLLHPAEAASEELRDEENNLQPSDSDEWLNISAEDLDSMLQDRYGPKKLYKPNGQMNAEEFTKQLAEFLDRQSNYEGIEHRGLEEPELDSDDDEPPPQANGSTGLTAKVKKNPSMRKACQRNSVIQPEEPDSTHVRNFLDFVIPEDNWDSTSEMSDYADEDDMESNLNALSGGGSVFPLDRQIQSYMEQMDRELAQTSVGKSFHGKKKTAPQADEDDFDDIEDFEPININVNTLRNMMDSYQSQVGGAGSVSNLFSAMGVGMSAVEDKEQKDISESAV

- binding [1]: binds
- binding [2]: no binding
B3: Ecd, epitope-tagged (co-immunoprecipitation of Figure 1C) (protein, UniProt Q9W032 1-684)
chain: B2 chain with S656P
